This is one part of the list. Repeats are few or missing, and single values can be far off.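 Imaging used 1,536-well plates; nuclei positive for cleaved PARP by antibody were divided by total DNA-stained nuclei to yield the apoptosis fraction. Doses for screening kept most cells viable, and cell lines differ markedly in resting and induced cleaved-PARP levels.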
Key:
Assay in all cases: cleaved PARP positive nuclei fraction relative to DMSO control; melanoma cells; higher = more apoptosis
Conditions in all cases: library dose: low library concentration; 72 h
501Mel = tested on: 501Mel
A101D = tested on: A101D
A2058 = tested on: A2058
A375 = tested on: A375
C32 = tested on: C32
CBRC008 = tested on: CBRC008 (line from a melanoma biopsy)
CBRC014 = tested on: CBRC014 (line from a melanoma biopsy)
CBRC016 = tested on: CBRC016 (line from a melanoma biopsy)
CBRC017 = tested on: CBRC017 (line from a melanoma biopsy)
CBRC034 = tested on: CBRC034 (line from a melanoma biopsy)
COLO792 = tested on: COLO792
COLO800 = tested on: COLO800
COLO829 = tested on: COLO829
G361 = tested on: G361
IPC-298 = tested on: IPC-298
IST-MEL1 = tested on: IST-MEL1
LB2518-MEL = tested on: LB2518-MEL
LOXIMVI = tested on: LOXIMVI
MEL-HO = tested on: MEL-HO

| SMILES | cleaved PARP positive nuclei fraction (501Mel) [%] | cleaved PARP positive nuclei fraction (A101D) [%] | cleaved PARP positive nuclei fraction (A2058) [%] | cleaved PARP positive nuclei fraction (A375) [%] | cleaved PARP positive nuclei fraction (C32) [%] | cleaved PARP positive nuclei fraction (CBRC008) [%] | cleaved PARP positive nuclei fraction (CBRC014) [%] | cleaved PARP positive nuclei fraction (CBRC016) [%] | cleaved PARP positive nuclei fraction (CBRC017) [%] | cleaved PARP positive nuclei fraction (CBRC034) [%] | cleaved PARP positive nuclei fraction (COLO792) [%] | cleaved PARP positive nuclei fraction (COLO800) [%] | cleaved PARP positive nuclei fraction (COLO829) [%] | cleaved PARP positive nuclei fraction (G361) [%] | cleaved PARP positive nuclei fraction (IPC-298) [%] | cleaved PARP positive nuclei fraction (IST-MEL1) [%] | cleaved PARP positive nuclei fraction (LB2518-MEL) [%] | cleaved PARP positive nuclei fraction (LOXIMVI) [%] | cleaved PARP positive nuclei fraction (MEL-HO) [%] |
| --- | --- | --- | --- | --- | --- | --- | --- | --- | --- | --- | --- | --- | --- | --- | --- | --- | --- | --- | --- |
| NC1(c2ccc(-c3nc4ccn5c(=O)[nH]nc5c4cc3-c3ccccc3)cc2)CCC1 + OCc1c[nH]c2ccccc12 [Indole-3-carbinol] (first compound 0.4 µM, partner dose 0.8 µM) | 92 | 69.6 | 186 | 122 | 85.2 | 320 | 81.6 | 102 | 70.5 | 71.8 | 122 | 83.1 | 85.2 | 91.1 | 142 | 64.5 | 106 | 141 | 151 |
| C[C@]1(O)C[C@@H](c2nc(-c3ccc4ccc(-c5ccccc5)nc4c3)c3c(N)nccn32)C1 + COCC[n+]1c2c(n(Cc3cnccn3)c1C)C(=O)c1ccccc1C2=O [YM155] (first compound 0.4 µM, partner dose 0.0004 µM) | 164 | 88.2 | 80.9 | 421 | 80.6 | 358 | 112 | 142 | 103 | 110 | 167 | 102 | 31.9 | 110 | 90.7 | 86.8 | 358 | 71.2 | 82 |
| C[C@@H](N)c1ccc(C(=O)Nc2ccnc3[nH]ccc23)cc1 + Nc1nc(F)nc2c1ncn2[C@@H]1O[C@H](CO)[C@@H](O)[C@@H]1O [fludarabine] (first compound 0.4 µM, partner dose 0.2 µM) | 11800 | 107 | 242 | 6850 | 78.5 | 89.8 | 122 | 41.9 | 133 | 24.7 | 125 | 52.1 | 35.9 | 122 | 128 | 63.7 | 39.9 | 131 | 106 |
| CCN(CC)CCNC(=O)c1c(C)[nH]c(/C=C2\C(=O)Nc3ccc(F)cc32)c1C [sunitinib] + C=C(c1ccc(C(=O)O)cc1)c1cc2c(cc1C)C(C)(C)CCC2(C)C [Bexarotene] (first compound 0.4 µM, partner dose 2 µM) | 120 | 63.2 | 203 | 87.4 | 80.9 | 92.9 | 103 | 198 | 124 | 114 | 91.2 | 227 | 95.1 | 136 | 51.9 | 246 | 188 | 55.1 | 165 |
| Cn1cnc2c(F)c(Nc3ccc(Br)cc3Cl)c(C(=O)NOCCO)cc21 [selumetinib] + Cc1nc(Nc2ncc(C(=O)Nc3c(C)cccc3Cl)s2)cc(N2CCN(CCO)CC2)n1 [dasatanib] (first compound 0.015 µM, partner dose 0.004 µM) | 208 | 222 | 189 | 309 | 285 | 62.9 | 91.9 | 131 | 115 | 166 | 308 | 154 | 28.2 | 192 | 63.7 | 75.1 | 436 | 237 | 23.5 |
| Cn1sc(=O)n(Cc2ccccc2)c1=O + COCC[n+]1c2c(n(Cc3cnccn3)c1C)C(=O)c1ccccc1C2=O [YM155] (first compound 0.4 µM, partner dose 0.0004 µM) | 68.2 | 46.2 | 101 | 477 | 148 | 113 | 105 | 289 | 118 | 68.7 | 111 | 26.1 | 94.4 | 77 | 42.6 | 89.9 | 233 | 188 | 150 |
| NC1(c2ccc(-c3nc4ccn5c(=O)[nH]nc5c4cc3-c3ccccc3)cc2)CCC1 + CN1CCN(c2ccc3nc(-c4c(N)c5c(F)cccc5[nH]c4=O)[nH]c3c2)CC1 [Dovitinib] (first compound 0.4 µM, partner dose 0.1 µM) | 195 | 316 | 94.6 | 432 | 90.5 | 48.3 | 92.3 | 37.8 | 66.4 | 277 | 111 | 71.4 | 138 | 194 | 46.2 | 70.9 | 121 | 93.5 | 35.6 |
| CCCCCCCCc1ccc(CCC(N)(CO)CO)cc1 [fingolimod] + C[C@@H](Oc1cc(-c2cnn(C3CCNCC3)c2)cnc1N)c1c(Cl)ccc(F)c1Cl [Crizotinib] (first compound 2 µM, partner dose 0.2 µM) | 753 | 157 | 107 | 239 | 75 | 77.3 | 90.8 | 86.7 | 165 | 147 | 67.8 | 90.8 | 180 | 111 | 56.4 | 55.4 | 127 | 105 | 74.3 |
| CCN(CC)CCNC(=O)c1c(C)[nH]c(/C=C2\C(=O)Nc3ccc(F)cc32)c1C [sunitinib] + Cc1nc(Nc2ncc(C(=O)Nc3c(C)cccc3Cl)s2)cc(N2CCN(CCO)CC2)n1 [dasatanib] (first compound 0.4 µM, partner dose 0.004 µM) | 297 | 73 | 120 | 118 | 115 | 25.9 | 162 | 52.4 | 102 | 75.8 | 93.5 | 115 | 71.7 | 73.9 | 88.8 | 38.6 | 61.4 | 162 | 99.8 |
| CCN(CC)CCNC(=O)c1c(C)[nH]c(/C=C2\C(=O)Nc3ccc(F)cc32)c1C [sunitinib] + CO[C@H]1C[C@@H]2CC[C@@H](C)[C@@](O)(O2)C(=O)C(=O)N2CCCC[C@H]2C(=O)O[C@H]([C@H](C)C[C@@H]2CC[C@@H](OCCO)[C@H](OC)C2)CC(=O)[C@H](C)/C=C(\C)[C@@H](O)[C@@H](OC)C(=O)[C@H](C)C[C@H](C)/C=C/C=C/C=C/1C [everolimus] (first compound 0.4 µM, partner dose 0.02 µM) | 1010 | 246 | 200 | 551 | 103 | 219 | 110 | 158 | 117 | 102 | 174 | 192 | 67.4 | 146 | 164 | 501 | 32.9 | 501 | 112 |
| C[C@]1(O)C[C@@H](c2nc(-c3ccc4ccc(-c5ccccc5)nc4c3)c3c(N)nccn32)C1 + C[C@@H](Oc1cc(-c2cnn(C3CCNCC3)c2)cnc1N)c1c(Cl)ccc(F)c1Cl [Crizotinib] (first compound 0.4 µM, partner dose 0.2 µM) | 119 | 49.4 | 72.2 | 341 | 668 | 120 | 104 | 76 | 90.6 | 88.4 | 132 | 78.6 | 85.8 | 135 | 46.7 | 111 | 103 | 90.5 | 121 |
| CC(=O)O[C@@]12CO[C@@H]1C[C@H](O)[C@@]1(C)C(=O)[C@H](O)C3=C(C)[C@@H](OC(=O)[C@H](O)[C@@H](NC(=O)OC(C)(C)C)c4ccccc4)C[C@@](O)([C@@H](OC(=O)c4ccccc4)[C@H]21)C3(C)C [Docetaxel] + CCCS(=O)(=O)Nc1ccc(F)c(C(=O)c2c[nH]c3ncc(Cl)cc23)c1F [PLX4720] (first compound 0.0001 µM, partner dose 0.08 µM) | 1350 | 180 | 2140 | 1970 | 186 | 303 | 142 | 274 | 213 | 108 | 480 | 230 | 113 | 476 | 101 | 71.8 | 127 | 160 | 81 |
| C[C@@H](N)c1ccc(C(=O)Nc2ccnc3[nH]ccc23)cc1 + Clc1ccc(Nc2nnc(Cc3ccncc3)c3ccccc23)cc1 [vatalanib] (first compound 0.4 µM, partner dose 2 µM) | 59.9 | 198 | 162 | 185 | 101 | 87.4 | 113 | 99.7 | 90.4 | 261 | 95.6 | 225 | 74.9 | 125 | 45.6 | 39.8 | 138 | 181 | 247 |
| C[C@]1(O)C[C@@H](c2nc(-c3ccc4ccc(-c5ccccc5)nc4c3)c3c(N)nccn32)C1 + Nc1ccn([C@@H]2O[C@H](CO)[C@@H](O)C2(F)F)c(=O)n1 [gemcitabine] (first compound 0.4 µM, partner dose 0.0004 µM) | 108 | 62.2 | 120 | 242 | 145 | 343 | 133 | 54.2 | 92 | 62.4 | 101 | 281 | 96.1 | 206 | 201 | 39.2 | 486 | 107 | 54.3 |
| C[C@]1(O)C[C@@H](c2nc(-c3ccc4ccc(-c5ccccc5)nc4c3)c3c(N)nccn32)C1 + NC1(c2ccc(-c3nc4ccn5c(=O)[nH]nc5c4cc3-c3ccccc3)cc2)CCC1 [MK2206] (first compound 0.4 µM, partner dose 0.4 µM) | 95.4 | 190 | 68 | 106 | 78.6 | 130 | 93 | 96.6 | 126 | 168 | 109 | 84.3 | 78.2 | 48.2 | 37.8 | 68.1 | 300 | 127 | 105 |
| CN(c1ncccc1CNc1nc(Nc2ccc3c(c2)CC(=O)N3)ncc1C(F)(F)F)S(C)(=O)=O + CNC(=O)c1cc(Oc2ccc(NC(=O)Nc3ccc(Cl)c(C(F)(F)F)c3)cc2)ccn1 [sorafenib] (first compound 0.08 µM, partner dose 0.4 µM) | 64.3 | 101 | 230 | 238 | 112 | 28.2 | 102 | 146 | 98.4 | 91.4 | 222 | 66.4 | 215 | 155 | 187 | 72.7 | 94.7 | 127 | 66 |

An excerpt from further up, as a working copy:

| SMILES | cleaved PARP positive nuclei fraction (501Mel) [%] | cleaved PARP positive nuclei fraction (A101D) [%] | cleaved PARP positive nuclei fraction (A2058) [%] | cleaved PARP positive nuclei fraction (A375) [%] | cleaved PARP positive nuclei fraction (C32) [%] | cleaved PARP positive nuclei fraction (CBRC008) [%] | cleaved PARP positive nuclei fraction (CBRC014) [%] | cleaved PARP positive nuclei fraction (CBRC016) [%] | cleaved PARP positive nuclei fraction (CBRC017) [%] | cleaved PARP positive nuclei fraction (CBRC034) [%] | cleaved PARP positive nuclei fraction (COLO792) [%] | cleaved PARP positive nuclei fraction (COLO800) [%] | cleaved PARP positive nuclei fraction (COLO829) [%] | cleaved PARP positive nuclei fraction (G361) [%] | cleaved PARP positive nuclei fraction (IPC-298) [%] | cleaved PARP positive nuclei fraction (IST-MEL1) [%] | cleaved PARP positive nuclei fraction (LB2518-MEL) [%] | cleaved PARP positive nuclei fraction (LOXIMVI) [%] | cleaved PARP positive nuclei fraction (MEL-HO) [%] |
| --- | --- | --- | --- | --- | --- | --- | --- | --- | --- | --- | --- | --- | --- | --- | --- | --- | --- | --- | --- |
| C[C@@H](N)c1ccc(C(=O)Nc2ccnc3[nH]ccc23)cc1 + Clc1ccc(Nc2nnc(Cc3ccncc3)c3ccccc23)cc1 [vatalanib] (first compound 0.4 µM, partner dose 2 µM) | 59.9 | 198 | 162 | 185 | 101 | 87.4 | 113 | 99.7 | 90.4 | 261 | 95.6 | 225 | 74.9 | 125 | 45.6 | 39.8 | 138 | 181 | 247 |
| C[C@]1(O)C[C@@H](c2nc(-c3ccc4ccc(-c5ccccc5)nc4c3)c3c(N)nccn32)C1 + Nc1ccn([C@@H]2O[C@H](CO)[C@@H](O)C2(F)F)c(=O)n1 [gemcitabine] (first compound 0.4 µM, partner dose 0.0004 µM) | 108 | 62.2 | 120 | 242 | 145 | 343 | 133 | 54.2 | 92 | 62.4 | 101 | 281 | 96.1 | 206 | 201 | 39.2 | 486 | 107 | 54.3 |
| C[C@]1(O)C[C@@H](c2nc(-c3ccc4ccc(-c5ccccc5)nc4c3)c3c(N)nccn32)C1 + NC1(c2ccc(-c3nc4ccn5c(=O)[nH]nc5c4cc3-c3ccccc3)cc2)CCC1 [MK2206] (first compound 0.4 µM, partner dose 0.4 µM) | 95.4 | 190 | 68 | 106 | 78.6 | 130 | 93 | 96.6 | 126 | 168 | 109 | 84.3 | 78.2 | 48.2 | 37.8 | 68.1 | 300 | 127 | 105 |

Source: the supplement of paper PMC4604168 (melanoma cell lines)
